# From the supplement of paper PMC8728848
# This is one part of the list.
# B1: Drgal1 (Danio rerio) (protein)
# chain: MAGVLIQNMSFKVGQTLTITGVPKPDSTNFAINIGHSPEDIALHMNPRFDAHGDQCTIVCNSFQSGSWCEEHRDDNFPFIQDKEFQIKITFTNEEFLVTLPDGSEIHFPNRQGSEKYKYMYFEGEVRIQGVEIK
# Tests used:
# Experiment in all cases: glycan array binding signal (z-score within array); higher = stronger binding
# Details in all cases: glycan notation: IUPAC condensed, linker removed
# [1] = target: Fuc(a1-2)Gal(b1-4)[Fuc(a1-3)]GlcNAc
# In short: (§1)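 Glycan array data came from 3228 arrays in the Consortium for Functional Glycomics database, and only arrays with an available protein sequence were kept. Glycan names were put into IUPAC-condensed notation, and columns mapping to the same glycan were averaged. The binding signal is a within-array Z-score, averaged across arrays of one protein sequence run at different concentrations or buffers and across linkers. A negative Z-score can be read as non-binding.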
# [2] = target: Fuc(a1-2)Gal(b1-4)[Fuc(a1-3)]GlcNAc(b1-2)Man(a1-3)[Fuc(a1-2)Gal(b1-4)[Fuc(a1-3)]GlcNAc(b1-2)Man(a1-6)]Man(b1-4)GlcNAc(b1-4)[Fuc(a1-6)]GlcNAc
# In short: as §1
# [3] = target: Fuc(a1-2)Gal(b1-4)[Fuc(a1-3)]GlcNAc(b1-2)[Fuc(a1-2)Gal(b1-4)[Fuc(a1-3)]GlcNAc(b1-4)]Man(a1-3)[Fuc(a1-2)Gal(b1-4)[Fuc(a1-3)]GlcNAc(b1-2)Man(a1-6)]Man(b1-4)GlcNAc(b1-4)GlcNAc
# In short: as §1
# [4] = target: Fuc(a1-2)Gal(b1-4)[Fuc(a1-3)]GlcNAc(b1-3)Gal(b1-4)[Fuc(a1-3)]GlcNAc
# In short: as §1
# [5] = target: Fuc(a1-2)Gal(b1-4)[Fuc(a1-3)]GlcNAc(b1-3)Gal(b1-4)[Fuc(a1-3)]GlcNAc(b1-3)Gal(b1-4)[Fuc(a1-3)]GlcNAc
# In short: as §1
# [6] = target: Fuc(a1-2)Gal(b1-4)[Fuc(a1-3)]GlcNAc(b1-3)GalNAc
# In short: as §1
# [7] = target: Fuc(a1-2)Gal(b1-4)[Fuc(a1-3)]GlcNAc(b1-3)[Neu5Ac(a2-6)Gal(b1-4)GlcNAc(b1-6)]Gal(b1-4)Glc
# In short: as §1
# [8] = target: Fuc(a1-2)Gal3S(b1-4)GlcNAc
# In short: as §1
# [9] = target: Fuc(a1-2)Gal6S(b1-3)GlcNAc
# In short: as §1
# [10] = target: Fuc(a1-2)Gal6S(b1-3)GlcNAc6S
# In short: as §1
# Fuc(a1-2)Gal6S(b1-4)Glc = target: Fuc(a1-2)Gal6S(b1-4)Glc
# In short: as §1
# [11] = target: Fuc(a1-2)Gal6S(b1-4)Glc6S
# In short: as §1
# Fuc(a1-2)[Gal(a1-3)]Gal = target: Fuc(a1-2)[Gal(a1-3)]Gal
# In short: as §1
# [12] = target: Fuc(a1-2)[Gal(a1-3)]Gal(b1-3)GalNAc
# In short: as §1
# [13] = target: Fuc(a1-2)[Gal(a1-3)]Gal(b1-3)GalNAc(b1-3)Gal(a1-4)Gal(b1-4)Glc
# In short: as §1
# [14] = target: Fuc(a1-2)[Gal(a1-3)]Gal(b1-3)GlcNAc
# In short: as §1
# [15] = target: Fuc(a1-2)[Gal(a1-3)]Gal(b1-3)GlcNAc(b1-2)Man(a1-3)[Fuc(a1-2)[Gal(a1-3)]Gal(b1-3)GlcNAc(b1-2)Man(a1-6)]Man(b1-4)GlcNAc(b1-4)GlcNAc
# In short: as §1
# [16] = target: Fuc(a1-2)[Gal(a1-3)]Gal(b1-3)GlcNAc(b1-2)Man(a1-3)[Fuc(a1-2)[Gal(a1-3)]Gal(b1-3)GlcNAc(b1-2)Man(a1-6)]Man(b1-4)GlcNAc(b1-4)[Fuc(a1-6)]GlcNAc
# In short: as §1
# [17] = target: Fuc(a1-2)[Gal(a1-3)]Gal(b1-3)GlcNAc(b1-3)GalNAc
# In short: as §1
# [18] = target: Fuc(a1-2)[Gal(a1-3)]Gal(b1-3)GlcNAc(b1-6)GalNAc
# In short: as §1
# [19] = target: Fuc(a1-2)[Gal(a1-3)]Gal(b1-4)Glc
# In short: as §1
# [20] = target: Fuc(a1-2)[Gal(a1-3)]Gal(b1-4)GlcNAc
# In short: as §1
# [21] = target: Fuc(a1-2)[Gal(a1-3)]Gal(b1-4)GlcNAc(b1-2)Man
# In short: as §1
# [22] = target: Fuc(a1-2)[Gal(a1-3)]Gal(b1-4)GlcNAc(b1-2)Man(a1-3)[Fuc(a1-2)[Gal(a1-3)]Gal(b1-4)GlcNAc(b1-2)Man(a1-6)]Man(b1-4)GlcNAc(b1-4)GlcNAc
# In short: as §1
# [23] = target: Fuc(a1-2)[Gal(a1-3)]Gal(b1-4)GlcNAc(b1-2)Man(a1-3)[Fuc(a1-2)[Gal(a1-3)]Gal(b1-4)GlcNAc(b1-2)Man(a1-6)]Man(b1-4)GlcNAc(b1-4)[Fuc(a1-6)]GlcNAc
# In short: as §1
# [24] = target: Fuc(a1-2)[Gal(a1-3)]Gal(b1-4)GlcNAc(b1-3)GalNAc
# In short: as §1
# [25] = target: Fuc(a1-2)[Gal(a1-3)]Gal(b1-4)GlcNAc(b1-3)[Fuc(a1-2)[Gal(a1-3)]Gal(b1-4)GlcNAc(b1-6)]GalNAc
# In short: as §1
# [26] = target: Fuc(a1-2)[Gal(a1-3)]Gal(b1-4)GlcNAc(b1-6)GalNAc
# In short: as §1
# [27] = target: Fuc(a1-2)[Gal(a1-3)]Gal(b1-4)[Fuc(a1-3)]Glc
# In short: as §1
# [28] = target: Fuc(a1-2)[Gal(a1-3)]Gal(b1-4)[Fuc(a1-3)]GlcNAc
# In short: as §1
# [29] = target: Fuc(a1-2)[Gal(a1-3)]Gal(b1-4)[Fuc(a1-3)]GlcNAc(b1-3)GalNAc
# In short: as §1
# [30] = target: Fuc(a1-2)[Gal(a1-4)]Gal(b1-4)GlcNAc
# In short: as §1
# [31] = target: Fuc(a1-2)[GalNAc(a1-3)]Gal
# In short: as §1
# [32] = target: Fuc(a1-2)[GalNAc(a1-3)]Gal(b1-3)GalNAc(a1-3)[Fuc(a1-2)]Gal(b1-4)GlcNAc
# In short: as §1
# [33] = target: Fuc(a1-2)[GalNAc(a1-3)]Gal(b1-3)GalNAc(b1-3)Gal(a1-4)Gal(b1-4)Glc
# In short: as §1
# [34] = target: Fuc(a1-2)[GalNAc(a1-3)]Gal(b1-3)GlcNAc
# In short: as §1
# [35] = target: Fuc(a1-2)[GalNAc(a1-3)]Gal(b1-3)GlcNAc(b1-2)Man(a1-3)[Fuc(a1-2)[GalNAc(a1-3)]Gal(b1-3)GlcNAc(b1-2)Man(a1-6)]Man(b1-4)GlcNAc(b1-4)GlcNAc
# In short: as §1
# [36] = target: Fuc(a1-2)[GalNAc(a1-3)]Gal(b1-3)GlcNAc(b1-2)Man(a1-3)[Fuc(a1-2)[GalNAc(a1-3)]Gal(b1-3)GlcNAc(b1-2)Man(a1-6)]Man(b1-4)GlcNAc(b1-4)[Fuc(a1-6)]GlcNAc
# In short: as §1
binder,measurement,setting,value
B1,glycan array binding signal (z-score),[1],-0.453
same,glycan array binding signal (z-score),[2],-0.112
same,glycan array binding signal (z-score),[3],-0.314
same,glycan array binding signal (z-score),[4],-0.06
same,glycan array binding signal (z-score),[5],-0.707
same,glycan array binding signal (z-score),[6],-0.382
same,glycan array binding signal (z-score),[7],-0.519
same,glycan array binding signal (z-score),[8],0.18
same,glycan array binding signal (z-score),[9],0.478
same,glycan array binding signal (z-score),[10],0.365
same,glycan array binding signal (z-score),Fuc(a1-2)Gal6S(b1-4)Glc,0.19
same,glycan array binding signal (z-score),[11],-0.797
same,glycan array binding signal (z-score),Fuc(a1-2)[Gal(a1-3)]Gal,0.491
same,glycan array binding signal (z-score),[12],0.013
same,glycan array binding signal (z-score),[13],0.079
same,glycan array binding signal (z-score),[14],-0.397
same,glycan array binding signal (z-score),[15],-0.061
same,glycan array binding signal (z-score),[16],-0.371
same,glycan array binding signal (z-score),[17],-0.568
same,glycan array binding signal (z-score),[18],0.084
same,glycan array binding signal (z-score),[19],-0.074
same,glycan array binding signal (z-score),[20],0.185
same,glycan array binding signal (z-score),[21],-0.129
same,glycan array binding signal (z-score),[22],-0.079
same,glycan array binding signal (z-score),[23],-0.098
same,glycan array binding signal (z-score),[24],0.04
same,glycan array binding signal (z-score),[25],0.226
same,glycan array binding signal (z-score),[26],-0.867
same,glycan array binding signal (z-score),[27],-0.54
same,glycan array binding signal (z-score),[28],0.086
same,glycan array binding signal (z-score),[29],-0.367
same,glycan array binding signal (z-score),[30],0.347
same,glycan array binding signal (z-score),[31],-0.457
same,glycan array binding signal (z-score),[32],-0.091
same,glycan array binding signal (z-score),[33],-0.262
same,glycan array binding signal (z-score),[34],0.247
same,glycan array binding signal (z-score),[35],-0.585
same,glycan array binding signal (z-score),[36],-0.55

# Exported bar-delimited: part of the list above.
binder | measurement | setting | value
B1 | glycan array binding signal (z-score) | [13] | 0.079
same | glycan array binding signal (z-score) | [18] | 0.084
